Test results reported in doi:10.1101/2023.07.20.549862.
Results are given in words; binding and its absence hold for the method and conditions named. Binding seen in cells or lysates may run through a third protein. Here binding means that the protein was enriched with, or labelled near, the bait; the list need not be complete.

Target: PbRpt3-mCherry (endogenously C-terminally mCherry-tagged PbRpt3) (Plasmodium berghei)
Assay: affinity purification with mass spectrometry

| Substance | binding |
| --- | --- |
| CDC73 domain-containing protein (from UniProt A0A509AQS0) | binds |
| DNA directed RNA polymerase 3 largest subunit (from UniProt A0A509AXN1) | binds |
| acetyltransferase ARD1 (from UniProt A0A509AQ99) (enzyme) | binds |
| acetyltransferase MYST (from UniProt A0A509ALZ7) (enzyme) | binds |
| calcium dependent protein kinase 7 (CDPK7) (from UniProt A0A509AJV2) (enzyme) | binds |
| double C2-like domain-containing protein (DOC2) (from UniProt A0A509ASV2) | binds |
| phosphoinositide-binding protein (PBANKA_0618200) (from UniProt A0A509AH92) | binds |
| phosphoinositide-binding protein PH2 (from UniProt A0A509ASP7) | binds |
| phosphoinositide-specific phospholipase C (PI-PLC) (from UniProt A0A509ATV4) (enzyme) | binds |
| transcription factor TFIID (from UniProt A0A509AKV9) | binds |
